Source: article doi:10.1101/2025.08.29.668156
These are yes or no findings as the source states them, for the method shown. In cells and extracts the contact can be indirect. A yes stands for co-enrichment or nearness to the bait. Other partners may have been found. Where a sequence is shown, tags or fusion partners need not be part of it.

What was measured:
Experiment in all cases: proximity labelling
Settings in all cases: remark: other sources report otherwise
[1] = target: T1, LMNA N-terminally fused to TurboID, P02545
T1 chain: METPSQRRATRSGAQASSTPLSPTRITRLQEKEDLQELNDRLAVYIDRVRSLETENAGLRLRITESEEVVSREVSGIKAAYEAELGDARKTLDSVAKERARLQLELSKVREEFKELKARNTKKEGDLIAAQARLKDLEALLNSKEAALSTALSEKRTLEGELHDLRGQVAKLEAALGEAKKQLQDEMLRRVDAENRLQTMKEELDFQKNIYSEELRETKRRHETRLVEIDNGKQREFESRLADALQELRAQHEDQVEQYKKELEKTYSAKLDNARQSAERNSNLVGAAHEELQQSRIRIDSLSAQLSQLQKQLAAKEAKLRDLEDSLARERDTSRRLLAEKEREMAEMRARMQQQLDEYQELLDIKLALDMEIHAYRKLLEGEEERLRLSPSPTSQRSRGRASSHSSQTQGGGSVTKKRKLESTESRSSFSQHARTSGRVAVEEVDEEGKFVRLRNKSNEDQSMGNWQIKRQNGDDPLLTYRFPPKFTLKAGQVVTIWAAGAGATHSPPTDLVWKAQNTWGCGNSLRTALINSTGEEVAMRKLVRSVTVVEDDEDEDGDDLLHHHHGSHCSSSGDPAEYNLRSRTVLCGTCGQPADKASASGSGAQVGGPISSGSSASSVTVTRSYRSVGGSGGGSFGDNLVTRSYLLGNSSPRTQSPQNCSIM

[2] = target: T2, LMNA N-terminally fused to ultraID, P02545
T2 chain: T1 chain

[3] = target: T3, LMNA N-terminally fused to miniTurbo, P02545
T3 chain: T1 chain

[4] = target: T4, LMNA N-terminally fused to BASU, P02545
T4 chain: T1 chain

binding [1]: binds | binding [2]: binds | binding [3]: binds | binding [4]: binds
B1: EMD, P50402 1-254 (protein)
chain: MDNYADLSDTELTTLLRRYNIPHGPVVGSTRRLYEKKIFEYETQRRRLSPPSSSAASSYSFSDLNSTRGDADMYDLPKKEDALLYQSKGYNDDYYEESYFTTRTYGEPESAGPSRAVRQSVTSFPDADAFHHQVHDDDLLSSSEEECKDRERPMYGRDSAYQSITHYRPVSASRSSLDLSYYPTSSSTSFMSSSSSSSSWLTRRAIRPENRAPGAGLGQDRQVPLWGQLLLFLVFVIVLFFIYHFMQAEEGNPF
